{"source": "patent US20170355959A1", "about": "“METHODS FOR MOBILISING POPULATIONS OF STEM CELLS” (Imperial Innovations Limited, priority 2014, published 2017)", "system": "CFU-Fs (MSPCs)", "test": "Mobilization of MSPCs into peripheral blood (CFU-F assay)", "format": "in vivo, mice", "details": "inhibitor or antagonist given 60 minutes prior to BRL 37344, once daily for 4 days"}
{"molecule": "COc1ccc2cc([C@H](C)C(=O)O)ccc2c1", "note": "[Naproxen]", "values": [{"measurement": "effect on CFU-F mobilization induced by 4 day beta 3 adrenergic agonist and CXCR4 antagonist", "value": "significant increase in the mobilization of both HSPCs or CFU-Fs"}]}
